Measured values as given in PubChem BioAssay AID2685 (National Center for Advancing Translational Sciences (NCATS), 2010).
Among all 320,000 compounds or so, about 2,100 (0.66%) were called active. Inconclusive means that the source gave no clear call. Such entries were picked first, then a sample of the others. The call rests on the fitted dose curve; in most records, active means well fitted inhibition curve with a large enough effect in the signal ratio, with a control signal flat (not every such curve was filed as active); inconclusive means small, poorly fitted or top-dose-only effect, or effect the other way, or a change in a side signal; inactive means flat fitted curve, though single readings scatter; the % refers to the signal ratio. Where the call is inconclusive, the potency comes from a doubtful curve fit.

assay: qHTS Assay for Lipid Storage Modulators in Drosophila S3 Cells; conditions: BODIPY lipid droplet fluorescence, 18-24 h, cells fed with added oleic acid; lipid storage change, negative = inhibition: at 46.1 µM (top of the series) unless noted
Outline: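 Drosophila S3 cells got compounds at several concentrations plus oleic acid (400 uM solution). Laser-scanning cytometry with 488 nm excitation read lipid droplets at 500-530 nm and cells at 575-640 nm. Percent activity was relative to 20 uM Triacsin C.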
On the % scale 0 is the no-effect control and ±100 the full control effect; potency means the concentration at half of the fitted maximal effect.

| Compound | lipid storage change, negative = inhibition | Potency |
| --- | --- | --- |
| Cc1ccc(NC(=S)NCCN2CCOCC2)cc1C | inconclusive: 40.6% |  |
| N#Cc1ccccc1S(=O)(=O)N1CCN(C(=O)CCc2ccccc2)CC1 | inconclusive: -46.4% |  |
| O=c1cnn(Cc2c(Cl)cccc2Cl)c2ccccc12 |  | inconclusive: 4.61 µM [activator, partial curve] |
| CN(CC(=O)Nc1cccc(F)c1)C(=O)Cc1n[nH]c(=O)c2ccccc12 | inconclusive: -17.1% |  |
| C=CCn1c(SCC(=O)Nc2cccc(C(=O)OC)c2)nnc1C(C)NC(=O)c1cccs1 (configuration not stated) |  | inconclusive: 18.4 µM [activator, partial curve] |
| O=C(CC(=O)NCc1cccnc1)NCc1cccnc1 | inconclusive: 3.14% |  |
| CC(C)(CCC(=S)N1CCOCC1)C1CCCCC1 |  | inconclusive: 0.291 µM [activator, full curve] |
| Cc1ccc(-c2c(C(=O)N/N=C/c3cccc(Cl)c3)nnn2-c2nonc2N)cc1 | inconclusive: -48.3% |  |
| Cc1ccc(-n2nc3c(=O)n(CCCC(=O)NCc4cccc(F)c4)nc(C)c3c2C)cc1 | inconclusive: -96.4% |  |
| COc1ccc(/[N+]([O-])=C/c2ccco2)cc1 | inconclusive: -2.6% |  |
| O=C(CNC(=S)N(CCCN1CCOCC1)Cc1cccs1)N1CCCCCC1 | inconclusive: 6.44% |  |
| O=C(OCC#CCSc1nnc(-c2cccc3ccccc23)o1)c1cc2ccccc2o1 | inconclusive: 4.18% |  |
| COc1ccc(NC(=O)CCSc2cc(C)c3ccccc3n2)cc1 | inconclusive: 106% |  |
| COc1ccccc1NC(C#N)c1ccccc1OCc1ccccc1 (configuration not stated) |  | inconclusive: 14.6 µM [activator, partial curve, poor fit] |
| Cc1cc2n(n1)C(c1ccc3c(c1)OCO3)Nc1ccccc1-2 (configuration not stated) | inconclusive: 0.484% |  |
| Cc1nnc(N/N=C/c2ccc([N+](=O)[O-])cc2)n1N | inconclusive: -13.6% |  |
| CCOc1ccc(NC(=O)CN(C)C(=O)CSCc2c(C)noc2C)cc1OCC | inconclusive |  |
| Cc1ccnn1CC(=O)N/N=C/c1cccs1 | inconclusive: 24.1% |  |
| CCOc1ccc(C2NC(=O)c3n[nH]c(C)c32)cc1 (configuration not stated) | inconclusive: -35.2% |  |
| COc1ccc2nc(N3C(=O)/C(=C/c4ccc(Cl)cc4)NC3=S)sc2c1 | inactive: 23.2% |  |
| CCC1CCCCN1C(=S)Nc1ccc(S(=O)(=O)Nc2ncccn2)cc1 (configuration not stated) |  | inconclusive: 29.1 µM [activator, single point] |
| COc1ccc(NC(=O)CCSc2nnnn2C)cc1 | inconclusive: -7.54% |  |
| CCCCn1c(N)c(N(CCOC)C(=O)c2cnc(C)cn2)c(=O)[nH]c1=O |  | inconclusive: 9.2 µM [activator, partial curve] |
| Cc1ccccc1-n1c(C)nnc1SCC(=O)N1CC(=O)Nc2ccccc21 | inconclusive: 16.1% |  |
| O=C(CSc1nnc(NC(=O)c2cccc(Cl)c2)s1)NCC1CCCO1 (configuration not stated) | inconclusive: 76.7% |  |
| C/C(=N\NS(=O)(=O)c1ccc(C)cc1)c1cccs1 | inconclusive: -36.3% |  |

| Compound | lipid storage change, negative = inhibition | Potency |
| --- | --- | --- |
| O=C(NCCc1ccco1)C(=O)NCCC1CCCCN1S(=O)(=O)c1ccccc1 (configuration not stated) | inconclusive: -0.845% |  |
| O=C(Nc1nc2ccc(F)cc2s1)C1CC(=O)N(c2ccc3c(c2)OCCO3)C1 (configuration not stated) | inconclusive: -60.9% |  |
| CCN(CC)S(=O)(=O)c1cccc(NN=c2c(=O)c3ccccc3c2=O)c1 | inconclusive: 14.4% |  |
| N#CC1=C(N)Oc2c(ccc3ccccc23)C1c1ccsc1 (configuration not stated) | inconclusive: -8.82% |  |
| CCC(C)NC(=O)COc1ccc(S(=O)(=O)N2CCOCC2)cc1 (configuration not stated) | inconclusive: -35.4% |  |
| Cc1ccccc1OCCC(=O)Nc1cccc(S(=O)(=O)Nc2ccccc2Cl)c1 | inconclusive: 25% |  |
| COc1ccc(C/C(N)=N/n2cnnc2)cc1 |  | inconclusive: 23.1 µM [falling, single point] |
| Cc1ccc(N(C)C(=O)N2CCN(S(=O)(=O)c3ccc4ccccc4c3)CC2)cc1 |  | inconclusive: 13 µM [activator, partial curve] |
| O=C(COc1cccc2ccccc12)N/N=C/c1ccco1 |  | inconclusive: 6.51 µM [falling, full curve, poor fit] |
| Fc1cccc(NC(=S)Nc2cccnc2)c1 | inconclusive: -0.0331% |  |
| CCC(c1nc2ccccc2c(=O)n1CCN1CCOCC1)N1C(=O)c2ccccc2C1=O (configuration not stated) | inconclusive: -32.7% |  |
| CC1CCN(C(=O)NC(=O)c2ccccc2)CC1 | inconclusive: 20.1% |  |
| c1cnc2ccc(-c3ccc4ncccc4c3)cc2c1 |  | inconclusive: 25.9 µM [falling, single point] |
| CC(=O)NC1CC2CCCC(C1)N2CC(=O)NCc1ccc(F)cc1 (configuration not stated) |  | inconclusive: 0.58 µM [falling, full curve, poor fit] |
| CC(=O)Nc1cc(OC(=O)c2ccco2)cc(OC(=O)c2ccco2)c1 |  | inconclusive: 29.1 µM [falling, single point] |
| COc1ccc(N(C(=O)CNC(=O)c2cccs2)C(C(=O)NCC2CCCO2)c2ccccc2)c(OC)c1 (configuration not stated) | inactive: 22.3% |  |
| COc1ccc(S(=O)(=O)N(CC(=O)N2CCN(C)CC2)C2CCCCC2)cc1OC |  | inconclusive: 0.0184 µM [activator, full curve, poor fit] |
| CNC(=O)CN(c1ccc2c(c1)OCCO2)S(C)(=O)=O | inconclusive: -22.5% |  |
| CCCN1CCN(C(=O)Cn2cnc3sc(C)c(S(=O)(=O)N4CCC(C)CC4)c3c2=O)CC1 | inconclusive: 3.75% |  |
| CCC(C)[C@H](NC(=O)NCc1ccc(Cl)cc1)C(=O)OC (some centres not stated) |  | inconclusive: 2.91 µM [falling, partial curve] |
| CCc1ccc(S(=O)(=O)Nc2c(C)nc3nc[nH]n3c2=O)cc1 | inconclusive: 305% |  |
| O=C(c1ccco1)N1CCN(c2ncnc3c2[nH]c2ccc(Cl)cc23)CC1 | inconclusive: -13.2% |  |
| O=C(OCc1nnc(-c2ccccc2)o1)c1ccco1 | inconclusive: -0.621% |  |
| CC(C)(C)c1ccc(S(=O)(=O)NCC(=O)N2CCN(C(=O)c3ccco3)CC2)cc1 | inconclusive: 38.9% |  |
| O=C(O)C1C2C=CC(C2)C1C(=O)Nc1ccc(Cl)c(Cl)c1 (configuration not stated) | inconclusive: -83.2% |  |
| O=S(=O)(NCC1CCCO1)c1ccc2oc3ccc(S(=O)(=O)NCC4CCCO4)cc3c2c1 (configuration not stated) | inconclusive: 50.9% |  |

| Compound | lipid storage change, negative = inhibition | Potency |
| --- | --- | --- |
| COc1ccc(-n2c(SCc3ccc([N+](=O)[O-])cc3)nnc2-c2ccc(C)cc2)cc1 | inconclusive: 12.5% |  |
| NC(=O)c1ccccc1NC(=O)Cc1cccs1 |  | inconclusive: 29.1 µM [activator, single point] |
| O=C(O)c1cccc(-n2cccc2/C=C\[N+](=O)[O-])c1 | inconclusive: -37.9% |  |
| O=C(COC(=O)c1cccs1)Nc1nnc(-c2ccccc2)o1 | inconclusive: 6.55% |  |
| Cc1ccnc(NC(=O)c2cc([N+](=O)[O-])cc([N+](=O)[O-])c2)c1 | inconclusive: -13.5% |  |
| CCC1(c2ccc(F)cc2)NC(=O)N(CC(=O)N2CCN(C(=O)c3cccs3)CC2)C1=O (configuration not stated) | inconclusive |  |
| Cc1ccccc1/C=C1\C(=O)Nc2ccc(F)cc21 | inconclusive: 12.4% |  |
| COC(=O)c1ccc(CSc2nnnn2Cc2ccccc2)cc1 | inconclusive: 88.8% |  |
| CCOC(=O)[C@H]1[C@H]2COc3ccc(OC)cc3[C@@H]2N2C(=O)c3cc(C)ccc3NC(=O)[C@@]12C | inconclusive: 7.22% |  |
| COc1ccc([C@H]2CC(=O)C=C(c3ccccc3)C2)cc1OC | inconclusive: -64.8% |  |
| CCC(C)c1ccc(NC(=S)NC2CCN(Cc3ccccc3)CC2)cc1 (configuration not stated) | inconclusive: -47% |  |
| O=C(N/N=C1\C2CN3CCN(C2)CC1(c1ccccc1)C3)Nc1ccccc1 | inconclusive: 12.3% |  |
| COC(=O)c1c(NC(=O)CSc2nnc(-c3cccnc3)n2Cc2ccco2)sc(C)c1C |  | inconclusive: 0.58 µM [rising, single point] |
| c1ccc2c(c1)[nH]c1c(N3CCC4(CC3)OCCO4)ncnc12 |  | inconclusive: 6.51 µM [activator, single point] |
| O=C(COC(=O)CCNS(=O)(=O)c1ccc(Cl)cc1)NCc1ccco1 | inconclusive: -3.75% |  |
| COc1ccc(/C=C(\C#N)C(=O)NC(C)c2ccccc2)cc1O (configuration not stated) |  | inconclusive: 18.4 µM [activator, single point] |
| Cc1ccc(S(=O)(=O)N2CCN(C(=O)COC(=O)/C=C/c3ccccc3)CC2)c(C)c1 |  | inconclusive: 16.4 µM [activator, single point] |
| CCOC(=O)C1CCN(C(=O)c2ccc(Cl)c(S(=O)(=O)N3CCCC3)c2)CC1 |  | inconclusive: 13 µM [activator, partial curve] |
| Cc1nc(CSc2nc3[nH]ncc3c(=O)n2-c2ccccc2)cs1 |  | inconclusive: 4.61 µM [activator, partial curve, poor fit] |
| Cc1ccsc1C(=O)Nc1ccc(S(=O)(=O)N2CCOCC2)cc1 | inconclusive: -38.3% |  |
| Cc1csc(SCC(=O)Nc2ccccn2)n1 |  | inconclusive: 1.16 µM [falling, full curve, poor fit] |
| CCOc1ccccc1OCC(=O)OCC(=O)c1c(N)n(CC(C)C)c(=O)n(C)c1=O | inconclusive: -40.4% |  |
| O=C1C2ON(c3ccccc3)C(c3ccccn3)C2C(=O)N1c1ccc(Br)cc1 (configuration not stated) |  | inconclusive: 18.4 µM [activator, partial curve] |
| Cc1ccccc1C(=O)NC1CC(C)(C)NC(C)(C)C1 | inconclusive: -9.16% |  |
| CCCN(CCC)CCNc1c(N2CCN(C(=O)OCC)CC2)c(=O)c1=O |  | inconclusive: 0.116 µM [falling, full curve] |

Sorted by SMILES length (high to low): part of the list above.

| Compound | lipid storage change, negative = inhibition | Potency |
| --- | --- | --- |
| COC(=O)c1c(NC(=O)CSc2nnc(-c3cccnc3)n2Cc2ccco2)sc(C)c1C |  | inconclusive: 0.58 µM [rising, single point] |
| CCCN(CCC)CCNc1c(N2CCN(C(=O)OCC)CC2)c(=O)c1=O |  | inconclusive: 0.116 µM [falling, full curve] |
| Cc1ccsc1C(=O)Nc1ccc(S(=O)(=O)N2CCOCC2)cc1 | inconclusive: -38.3% |  |
| NC(=O)c1ccccc1NC(=O)Cc1cccs1 |  | inconclusive: 29.1 µM [activator, single point] |
